Test results from PMC7819943, “Rice protein-binding microarrays: a tool to detect cis-acting elements near promoter regions in rice”.
The list shows a part of the results.

Biological target: T1, OsSMF1 (Oryza sativa, UniProt Q6ZLB0 1-436)
T1 sequence: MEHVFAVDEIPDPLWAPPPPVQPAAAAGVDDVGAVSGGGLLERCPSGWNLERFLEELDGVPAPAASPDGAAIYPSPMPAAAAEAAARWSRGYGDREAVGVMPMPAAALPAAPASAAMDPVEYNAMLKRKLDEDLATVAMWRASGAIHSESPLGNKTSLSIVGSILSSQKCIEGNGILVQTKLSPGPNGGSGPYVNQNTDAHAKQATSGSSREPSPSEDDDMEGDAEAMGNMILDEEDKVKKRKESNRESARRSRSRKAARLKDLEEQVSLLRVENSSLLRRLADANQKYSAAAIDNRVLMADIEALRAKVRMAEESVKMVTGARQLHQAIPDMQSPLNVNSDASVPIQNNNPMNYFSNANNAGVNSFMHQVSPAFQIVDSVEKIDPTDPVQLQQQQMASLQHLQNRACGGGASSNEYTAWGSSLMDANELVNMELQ
Assay: protein-binding microarray (RPBM); PBS, 2% BSA, 51.3 ng/ul salmon testes DNA, 50 uM zinc acetate, 200 nM TF, 25 C, 1 h; high values mean tight binding
Conditions: protein: recombinant; tags: N-terminal polyhistidine and DsRed monomer fusion (pET32a); chain copies: 2; label: CyDye5-dUTP incorporated in the synthesized complementary strand; 3' TTTTT single-stranded linker to array surface; dsDNA, one strand shown
Procedure, shortened: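 Transcription factors were each fused at the N-terminus to a polyhistidine tag plus DsRed and expressed in E. coli BL21-CodonPlus before Ni–NTA purification. Binding to a double-stranded custom Agilent array was carried out with 200 nM protein at 25 °C for 1 h in PBS, 2% BSA, salmon testes DNA and 50 µM zinc acetate. The binding signal is per-feature fluorescence intensity, in arbitrary units, on an Axon 4000B scanner.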

Sequence	binding signal
TTGGCTCCCTCGTCGTCTCCGTTACCACGCGCACACTGCCCGGAGTCACCTAGTGCAG	3910 fluorescence intensity (a.u.)
TCAAGCATTGTGGGTCAATGGACCACAAGAAGTAAAACGTCGGAGTCACCTAGTGCAG	22000 fluorescence intensity (a.u.)
CGCCATTGTGCGAGGCACGAGTGCACATCGATCTCCTATACGGAGTCACCTAGTGCAG	3380 fluorescence intensity (a.u.)
CTCCTCCCTGCCGCTCGGTGACACTCCCATCTCTTGCGTGCGGAGTCACCTAGTGCAG	3590 fluorescence intensity (a.u.)
CATTTTCTCCAGGCCCATTAAGCCCATAGGTCATCGTATCCGGAGTCACCTAGTGCAG	3390 fluorescence intensity (a.u.)
GCATGTTTTGAGTTTGAAAGTTTTAAATTTTGAGTTGAAACGGAGTCACCTAGTGCAG	50200 fluorescence intensity (a.u.)
CCGGACACGGACAGTCAGCTGGAAGGTCATCATGATTCATCGGAGTCACCTAGTGCAG	18200 fluorescence intensity (a.u.)
GAGAGCGGTATTGCGCGGATGGCATACTTAAGCAAGTTGACGGAGTCACCTAGTGCAG	31500 fluorescence intensity (a.u.)
TGCCCTCCCTCCGCAGCCGTACACGTGTCCCGATCCCCAGCGGAGTCACCTAGTGCAG	5860 fluorescence intensity (a.u.)
GCTTCAAATTTGAGAGTATGACATGTGGGTCCTAAGGCTACGGAGTCACCTAGTGCAG	3520 fluorescence intensity (a.u.)
ATATGGTTTCAAATGACATCAATCTGAACTAGCCCGTAGTCGGAGTCACCTAGTGCAG	3250 fluorescence intensity (a.u.)
AGATGGCATTCCCAGTTTAGTCATGTACACCGTAGCCGTACGGAGTCACCTAGTGCAG	3440 fluorescence intensity (a.u.)
GCGTCTGGGGCCTCGGGCGGCGCGCGCGGGGAGGGGCGTGCGGAGTCACCTAGTGCAG	3280 fluorescence intensity (a.u.)
GATAATCATTTTGTTTCCATGTCATGTGAAATTTATAATTCGGAGTCACCTAGTGCAG	3710 fluorescence intensity (a.u.)
TCGCCTGCGGTCGTGCGCGCGTGGCGTACGTGCGGCCACCCGGAGTCACCTAGTGCAG	4480 fluorescence intensity (a.u.)
CTTGGCCCAGAAACAACACACACACTCAAATCTGGATCCACGGAGTCACCTAGTGCAG	3790 fluorescence intensity (a.u.)
AAATGAAATAAACATGTGAGTTGCTGCTGCGTACGTGTTGCGGAGTCACCTAGTGCAG	4400 fluorescence intensity (a.u.)
ACAATATAGGGTGTGACAGTTTGAAACGACGCAAATCGAGCGGAGTCACCTAGTGCAG	28700 fluorescence intensity (a.u.)
CCCACCACCATCCATCCATGTGTCACCCCTCCTCCGCTTGCGGAGTCACCTAGTGCAG	3580 fluorescence intensity (a.u.)
ATATATTGACAAGGCAATGACATAGATAGCTAGACATATCCGGAGTCACCTAGTGCAG	3190 fluorescence intensity (a.u.)
GCTGGACGCGGATGGGCTAAACCGTATTCCCCGTCACTTTCGGAGTCACCTAGTGCAG	4150 fluorescence intensity (a.u.)

Reprinted from the results shown (two entries):
Sequence	binding signal
CCGGACACGGACAGTCAGCTGGAAGGTCATCATGATTCATCGGAGTCACCTAGTGCAG	18200 fluorescence intensity (a.u.)
GAGAGCGGTATTGCGCGGATGGCATACTTAAGCAAGTTGACGGAGTCACCTAGTGCAG	31500 fluorescence intensity (a.u.)

(next part)

Sequence	binding signal
GAAATATGTGACACTGATATGTGGGTCACGCGTGCTTACTCGGAGTCACCTAGTGCAG	3500 fluorescence intensity (a.u.)
GAGTCCTTGGACCACCTGGATTTTGGCCCGGCCCAAACAACGGAGTCACCTAGTGCAG	18700 fluorescence intensity (a.u.)
GTCCGGGCCTCCTGCCATTACGTGATGATGTGTAAAGGACCGGAGTCACCTAGTGCAG	6960 fluorescence intensity (a.u.)
ATGCAATGCATGCCACGCCATGCATCATATCCTCGTCGTCCGGAGTCACCTAGTGCAG	7760 fluorescence intensity (a.u.)
TTTGGACGACGGTTTCAGCTGACGTGACGCCTACATATCTCGGAGTCACCTAGTGCAG	8650 fluorescence intensity (a.u.)
TCAGTGTACATTCACTAATTAAATTAACAGGTTTGTTCAACGGAGTCACCTAGTGCAG	32900 fluorescence intensity (a.u.)
TCCAAGACATTGAGGTTGTTCTTGCTGACAAACTCGTTGCCGGAGTCACCTAGTGCAG	3660 fluorescence intensity (a.u.)
ATTGGGGAGAGGAGCTGGGCGAGGCGGGGCTTGGGCTCGGCGGAGTCACCTAGTGCAG	3390 fluorescence intensity (a.u.)
CTTATATTACCTGTCAGAATACCAAACCAACCAGGCCGAACGGAGTCACCTAGTGCAG	24800 fluorescence intensity (a.u.)
GTTGCCTAGGATGTCGATCTTCGGGTCTTGGGTGAGCGTGCGGAGTCACCTAGTGCAG	3250 fluorescence intensity (a.u.)
CGCCTCCTCCTCCCCACCTCATCACCACCGCCGCCAACCACGGAGTCACCTAGTGCAG	3690 fluorescence intensity (a.u.)
ACAGCGCGACGAGACTGACGAATGACGACGCAAGCACAACCGGAGTCACCTAGTGCAG	3380 fluorescence intensity (a.u.)
AATTTGCAATGCTTCTTGCTTGTGATTGTGACGACGATGCCGGAGTCACCTAGTGCAG	3720 fluorescence intensity (a.u.)
TCCTGATACTGGCCGACATCAACTTAATTACATCATATCGCGGAGTCACCTAGTGCAG	3150 fluorescence intensity (a.u.)
TCCGTACCGTGTGGAAAGGGTCATCGGGTCAGCTCAGCTGCGGAGTCACCTAGTGCAG	3280 fluorescence intensity (a.u.)
CAAAGGATACGATCGGAATAACACGTGTGGTAACCCTTCGCGGAGTCACCTAGTGCAG	7080 fluorescence intensity (a.u.)
CTCTCTGTCTCACCGGTATAGAAGCTAGTGACACTAGGCACGGAGTCACCTAGTGCAG	3150 fluorescence intensity (a.u.)
ACTCTCATGCATATTAGTCATCAAGTTGAATTGGCCCTGACGGAGTCACCTAGTGCAG	5110 fluorescence intensity (a.u.)
AGAGTGCGCATGTCCGCAATTGGTGACTCCATCCCGGCCACGGAGTCACCTAGTGCAG	3150 fluorescence intensity (a.u.)
CGGCGAGGAGGAGGAGGAAGAGCAGCGGGTGGAGCACGGCCGGAGTCACCTAGTGCAG	4350 fluorescence intensity (a.u.)
CCAATTCTCAGTGGCTTCTGTATGTAAATCTTGTTGGAAACGGAGTCACCTAGTGCAG	3210 fluorescence intensity (a.u.)
